Source: patent US8173662B2, “Fused pyrimidines as inhibitors of nucleoside phosphorylases and nucleosidases” (Industrial Research Limited, priority 2002, dated 2012)
The name of at least one read-out is uncertain.

Biological target: T1, Human MTAP (Homo sapiens, UniProt Q13126)
T1 sequence (Q13126 1-283): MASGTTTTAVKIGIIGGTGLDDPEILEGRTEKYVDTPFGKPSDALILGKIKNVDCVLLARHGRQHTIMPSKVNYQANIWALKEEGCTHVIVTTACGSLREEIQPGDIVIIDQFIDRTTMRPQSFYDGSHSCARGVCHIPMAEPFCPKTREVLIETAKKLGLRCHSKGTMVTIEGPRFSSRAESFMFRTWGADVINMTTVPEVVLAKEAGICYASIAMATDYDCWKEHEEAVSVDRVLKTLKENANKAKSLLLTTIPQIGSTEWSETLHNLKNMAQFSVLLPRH
Assay: Inhibition of human MTAP (slow-onset inhibition, spectrophotometric assay)
Type: biochemical
Details: result in words, at 10 micomolar
Experimental: Ki* is the biologically effective constant.
Continuous spectrophotometric assays as well as discontinuous assays were used to characterize the inhibitors of the invention and in vivo inhibition of MTAP and/or MTAN. […] The reactions were stopped by the addition of 1 μL of concentrated HCl or 60% perchloric acid. […] Following development, adenine spots were located by ultraviolet light absorbance, excised and counted for the content of tritium. For analysis of MTAP activity in blood samples, 6 μL of a mixture containing 1:1 blood:0.6% Triton X-100 was added to the assay mixture described above and samples taken at appropriate times for analysis by thin layer chromatography. Assays for MTAP activity from mouse liver were accomplished in a similar manner. […]
Conditions for Ki* determination used high concentration of substrate. […] The Ki values of these enzymes for the inhibitors were calculated by fitting in the ratio of initial rates in the presence of inhibitor to those without inhibitor versus the inhibitor concentration, for the known Km and substrate concentration into the following expression:
[formula] Where • Vo′ is the rate in the presence of inhibitor • Vo rate in the absence of inhibitor • [I] inhibitor concentration • And [S] is the substrate concentration And the Ki* was calculated by fitting to following expression […]

`Nc1ncnc2c(CN3C[C@H](CCc4ccccc4)[C@@H](O)C3)c[nH]c12` [Compound 27, (3R,4S)-1-[(9-Deazaadenin-9-yl)methyl]-3-hydroxy-4-(2-phenylethyl)pyrrolidine] was tested, and the Ki was “No inhibition at 10 micomolar”.
